Measurements: paper PMC12033163 (Nano Convergence, 2025)

Assay: peptide synthesis
Conditions: conjugation step

PEPTIDE1{[ac].F.R.R.F.[deBocDTX]}$$$$V2.0
conjugation yield: 35%
final HPLC purity (HPLC): approximately 98%

Strings that start with PEPTIDE1 are HELM notation: dots part the residues, brackets hold end groups and non-standard residues.
